PubChem BioAssay AID1259308 | NCATS, 2017
Screen: 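Knock-downs that increase output of a recombinant reporter protein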 (primary screen). System: human HEK293 embryonic kidney cells stably expressing firefly luciferase (HEK-CMV-Luc2-Hygro). Reagent: single siRNA against human genes, 0.8 pmol siRNA per well. Duration: 72 h. Measurement: 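Reporter luminescence and viable-cell signal on separate replicate plates, given as percent of non-targeting control and median/MAD z-scores, plus per-cell luciferase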. Reading the numbers: total luciferase, z-score: higher = more reporter protein produced. Active means: 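Active when the median/MAD z-score for overall luciferase is greater than 3; a gene was taken forward for validation with new siRNAs if at least two of its three siRNAs passed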. Calls: active = raised luciferase; inactive = no rise.
This is a random part of about 59,000 reagents. Of all reagents, about 1,510 (2.6%) are marked active. 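Calls use total luciferase alone and ignore viability, so some active siRNAs may act by altering cell number.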 The numbers tell different reagents against one gene apart. Further read-outs or replicates are left out here. Reagent sequences are not shown.

Silencing of UBXN1 #1 came out at: total luciferase, z-score -1.03; inactive.
After knock-down of UBXN1 #2 the results were total luciferase, z-score 2.13; inactive.
With knock-down of UBXN1 #3, the record shows total luciferase, z-score -0.802; inactive.
Depletion of PTGFRN #1 resulted in: total luciferase, z-score -0.269; inactive.
After knock-down of PTGFRN #2, the record shows total luciferase, z-score 0.556; inactive.
PTGFRN #3 scored total luciferase, z-score 0.612; inactive.
Knock-down of C19orf84 #1 gave: total luciferase, z-score -3.06; inactive.
After knock-down of C19orf84 #2 the results were total luciferase, z-score 0.326; inactive.
With knock-down of C19orf84 #3, the record shows total luciferase, z-score -0.1; inactive.
FBXO38 #1 showed total luciferase, z-score 0.768; inactive.
After knock-down of FBXO38 #2, the screen gave total luciferase, z-score 1.27; inactive.
For FBXO38 #3, the entry reads total luciferase, z-score -0.674; inactive.
Silencing of RYR1 #1 resulted in: total luciferase, z-score -0.069; inactive.
Silencing of RYR1 #2 came out at: total luciferase, z-score -0.913; inactive.
RYR1 #3 scored total luciferase, z-score -1.66; inactive.
Silencing of FAU #1 gave: total luciferase, z-score -2.63; inactive.
With knock-down of FAU #2 the results were total luciferase, z-score -2; inactive.
For FAU #3, the values are total luciferase, z-score 0.326; inactive.
PIK3C3 #1 gave total luciferase, z-score 0.0807; inactive.
After knock-down of PIK3C3 #2 the results were total luciferase, z-score -1.07; inactive.
PIK3C3 #3 gave total luciferase, z-score -0.37; inactive.
After knock-down of SLC8A2 #1 the results were total luciferase, z-score 0.00337; inactive.
After knock-down of SLC8A2 #2, the screen gave total luciferase, z-score 0.235; inactive.
SLC8A2 #3 gave total luciferase, z-score 0.28; inactive.
NDUFAF1 #1 showed total luciferase, z-score 3.37; active.
Silencing of NDUFAF1 #2 came out at: total luciferase, z-score -1.22; inactive.
NDUFAF1 #3 scored total luciferase, z-score 0.0248; inactive.
With knock-down of PTGER3 #1, the screen gave total luciferase, z-score 0.207; inactive.
Against PTGER3 #2, the entry reads total luciferase, z-score -0.228; inactive.
Silencing of PTGER3 #3 gave: total luciferase, z-score 0.704; inactive.
ARRDC4 #1 showed total luciferase, z-score -0.308; inactive.
After knock-down of ARRDC4 #2, the screen gave total luciferase, z-score 1.47; inactive.
Against ARRDC4 #3, the values are total luciferase, z-score -2.25; inactive.
